From publication PMC5414174, “DNA replication licensing factor Cdc6 and Plk4 kinase antagonistically regulate centrosome duplication via Sas-6” (Nature Communications, 2017) come the findings set out here.

In assay [1] the target is T1, endogenous Cdc6 (human (endogenous in HEK293)) (UniProt Q99741).
T1 sequence: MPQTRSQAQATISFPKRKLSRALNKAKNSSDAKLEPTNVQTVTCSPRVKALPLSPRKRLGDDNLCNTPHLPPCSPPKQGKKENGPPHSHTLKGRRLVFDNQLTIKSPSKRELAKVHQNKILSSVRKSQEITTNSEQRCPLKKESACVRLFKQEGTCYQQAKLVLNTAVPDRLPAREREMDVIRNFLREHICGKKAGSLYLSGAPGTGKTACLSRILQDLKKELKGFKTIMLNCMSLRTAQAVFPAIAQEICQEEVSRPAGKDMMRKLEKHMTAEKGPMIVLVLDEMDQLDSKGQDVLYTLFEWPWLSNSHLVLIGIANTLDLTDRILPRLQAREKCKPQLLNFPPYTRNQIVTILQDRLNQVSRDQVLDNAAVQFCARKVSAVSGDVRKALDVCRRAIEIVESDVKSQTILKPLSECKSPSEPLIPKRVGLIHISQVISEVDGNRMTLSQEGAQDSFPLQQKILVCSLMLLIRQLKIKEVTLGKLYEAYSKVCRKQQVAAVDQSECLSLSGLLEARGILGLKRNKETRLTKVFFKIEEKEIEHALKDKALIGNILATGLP
Nature of the assay: co-IP; endogenous proteins, HEK293 total cell extract, IP with Cdc6 antibody (reciprocal with Sas-6 as bait per the text); in Fig. 7a HEK 293 T cells with control or Plk4 siRNA.

Assay [2] has as its target T2, endogenous Sas-6 (human (endogenous in HEK293)) (UniProt Q6UVJ0).
T2 sequence: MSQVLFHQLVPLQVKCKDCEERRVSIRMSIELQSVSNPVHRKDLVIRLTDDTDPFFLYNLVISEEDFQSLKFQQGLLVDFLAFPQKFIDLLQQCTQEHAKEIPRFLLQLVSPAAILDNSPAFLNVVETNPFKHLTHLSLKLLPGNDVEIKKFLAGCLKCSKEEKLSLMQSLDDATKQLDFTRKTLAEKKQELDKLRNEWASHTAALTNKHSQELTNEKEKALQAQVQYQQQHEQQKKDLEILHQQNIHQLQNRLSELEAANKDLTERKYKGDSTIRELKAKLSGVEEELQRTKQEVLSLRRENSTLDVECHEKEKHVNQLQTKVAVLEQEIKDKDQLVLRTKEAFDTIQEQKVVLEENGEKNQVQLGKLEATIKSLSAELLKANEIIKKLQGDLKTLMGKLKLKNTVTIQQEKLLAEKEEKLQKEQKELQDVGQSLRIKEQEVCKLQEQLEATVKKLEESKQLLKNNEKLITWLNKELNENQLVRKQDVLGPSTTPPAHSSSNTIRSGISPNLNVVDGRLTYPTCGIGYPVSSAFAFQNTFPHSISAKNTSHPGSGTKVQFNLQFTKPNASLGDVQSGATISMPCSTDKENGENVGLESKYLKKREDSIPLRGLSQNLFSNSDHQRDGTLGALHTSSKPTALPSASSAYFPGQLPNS
Described as above.

These are yes or no findings as the source states them, for the method shown. In cells and extracts the contact can be indirect. Some binding calls cover weakened binding; strength is not graded here.

B1: endogenous STIL (protein, UniProt Q15468 1-1287)
chain: MEPIYPFARPQMNTRFPSSRMVPFHFPPSKCALWNPTPTGDFIYLHLSYYRNPKLVVTEKTIRLAYRHAKQNKKNSSCFLLGSLTADEDEEGVTLTVDRFDPGREVPECLEITPTASLPGDFLIPCKVHTQELCSREMIVHSVDDFSSALKALQCHICSKDSLDCGKLLSLRVHITSRESLDSVEFDLHWAAVTLANNFKCTPVKPIPIIPTALARNLSSNLNISQVQGTYKYGYLTMDETRKLLLLLESDPKVYSLPLVGIWLSGITHIYSPQVWACCLRYIFNSSVQERVFSESGNFIIVLYSMTHKEPEFYECFPCDGKIPDFRFQLLTSKETLHLFKNVEPPDKNPIRCELSAESQNAETEFFSKASKNFSIKRSSQKLSSGKMPIHDHDSGVEDEDFSPRPIPSPHPVSQKISKIQPSVPELSLVLDGNFIESNPLPTPLEMVNNENPPLINHLEHLKPLQPQLYDEKHSPEVEAGEPSLRGIPNQLNQDKPALLRHCKVRQPPAYKKGNPHTRNSIKPSSHNGPSHDIFEKLQTVSAGNVQNEEYPIRPSTLNSRQSSLAPQSQPHDFVFSPHNSGRPMELQIPTPPLPSYCSTNVCRCCQHHSHIQYSPLNSWQGANTVGSIQDVQSEALQKHSLFHPSGCPALYCNAFCSSSSPIALRPQGDMGSCSPHSNIEPSPVARPPSHMDLCNPQPCTVCMHTPKTESDNGMMGLSPDAYRFLTEQDRQLRLLQAQIQRLLEAQSLMPCSPKTTAVEDTVQAGRQMELVSVEAQSSPGLHMRKGVSIAVSTGASLFWNAAGEDQEPDSQMKQDDTKISSEDMNFSVDINNEVTSLPGSASSLKAVDIPSFEESNIAVEEEFNQPLSVSNSSLVVRKEPDVPVFFPSGQLAESVSMCLQTGPTGGASNNSETSEEPKIEHVMQPLLHQPSDNQKIYQDLLGQVNHLLNSSSKETEQPSTKAVIISHECTRTQNVYHTKKKTHHSRLVDKDCVLNATLKQLRSLGVKIDSPTKVKKNAHNVDHASVLACISPEAVISGLNCMSFANVGMSGLSPNGVDLSMEANAIALKYLNENQLSQLSVTRSNQNNCDPFSLLHINTDRSTVGLSLISPNNMSFATKKYMKRYGLLQSSDNSEDEEEPPDNADSKSEYLLNQNLRSIPEQLGGQKEPSKNDHEIINCSNCESVGTNADTPVLRNITNEVLQTKAKQQLTEKPAFLVKNLKPSPAVNLRTGKAEFTQHPEKENEGDITIFPESLQPSETLKQMNSMNSVGTFLDVKRLRQLPKLF
For B1, in assay [1], the binding entry is reported as “no binding”.

B2: endogenous Cdc6 (protein, UniProt Q99741 1-560)
chain: T1 sequence
In the case of B2, in assay [2], the binding entry is reported as “binds”.

B3: endogenous Sas-6 (protein, UniProt Q6UVJ0 1-657)
chain: T2 sequence
As for B3, the binding result in assay [1] is reported as “binds”.

B4: endogenous Plk4 (enzyme, UniProt O00444 1-970)
chain: MATCIGEKIEDFKVGNLLGKGSFAGVYRAESIHTGLEVAIKMIDKKAMYKAGMVQRVQNEVKIHCQLKHPSILELYNYFEDSNYVYLVLEMCHNGEMNRYLKNRVKPFSENEARHFMHQIITGMLYLHSHGILHRDLTLSNLLLTRNMNIKIADFGLATQLKMPHEKHYTLCGTPNYISPEIATRSAHGLESDVWSLGCMFYTLLIGRPPFDTDTVKNTLNKVVLADYEMPSFLSIEAKDLIHQLLRRNPADRLSLSSVLDHPFMSRNSSTKSKDLGTVEDSIDSGHATISTAITASSSTSISGSLFDKRRLLIGQPLPNKMTVFPKNKSSTDFSSSGDGNSFYTQWGNQETSNSGRGRVIQDAEERPHSRYLRRAYSSDRSGTSNSQSQAKTYTMERCHSAEMLSVSKRSGGGENEERYSPTDNNANIFNFFKEKTSSSSGSFERPDNNQALSNHLCPGKTPFPFADPTPQTETVQQWFGNLQINAHLRKTTEYDSISPNRDFQGHPDLQKDTSKNAWTDTKVKKNSDASDNAHSVKQQNTMKYMTALHSKPEIIQQECVFGSDPLSEQSKTRGMEPPWGYQNRTLRSITSPLVAHRLKPIRQKTKKAVVSILDSEEVCVELVKEYASQEYVKEVLQISSDGNTITIYYPNGGRGFPLADRPPSPTDNISRYSFDNLPEKYWRKYQYASRFVQLVRSKSPKITYFTRYAKCILMENSPGADFEVWFYDGVKIHKTEDFIQVIEKTGKSYTLKSESEVNSLKEEIKMYMDHANEGHRICLALESIISEEERKTRSAPFFPIIIGRKPGSTSSPKALSPPPSVDSNYPTRERASFNRMVMHSAASPTQAPILNPSMVTNEGLGLTTTASGTDISSNSLKDCLPKSAQLLKSVFVKNVGWATQLTSGAVWVQFNDGSQLVVQAGVSSISYTSPNGQTTRYGENEKLPDYIKQKLQCLSSILLMFSNPTPNFH
B4: the binding result in assay [1] is “binds”.
